# From the supplement of paper PMC4749390
# Structures can show the parent of a compound that is named as a salt. Some of the results follow. Repeats in this data set agree poorly, so a single value says little.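 JEG3 cells stably carry tetracycline-induced wild-type human LRH-1, a heavily sumoylated nuclear receptor. APOC3 and MUC1 are SUMO-sensitive transcripts, raised by SUMO-less LRH-1 or UBC9 knockdown, measured by RT-qPCR against TBP and DMSO controls. A robust Z-score above +2 or below -2 marked a primary hit before toxicity and TBP filtering.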
# System: JEG3 expressing hLRH-1
# Assay: APOC3 transcript change (ddCt vs TBP and DMSO), Z-score over library; higher = higher APOC3 expression
# Conditions: 10 µM; time (hr): 24
row,SMILES,APOC3 transcript change (Z-score)
1,CC(=O)OCC(=O)[C@@]1(O)CC[C@H]2[C@@H]3CCC4=CC(=O)CC[C@]4(C)[C@@]3(F)[C@@H](O)C[C@@]21C [fludrocortisone acetate],0.498
2,FC(F)(F)C(Cl)Br (stereo unspecified) [halothane],1.13
3,CCCCN(CCCC)CCCOC(=O)c1ccc(N)cc1 [butacaine],0.972
4,CC(=O)OCC(=O)[C@@]1(O)CC[C@H]2[C@@H]3CCC4=CC(=O)C=C[C@]4(C)[C@@]3(Cl)[C@@H](Cl)C[C@@]21C [dichlorisone acetate],-0.214
5,NNCCc1ccccc1 [phenelzine sulfate],0.321
6,CCc1cn(C2OCC(O)C2CO)c(=O)[nH]c1=O (stereo unspecified) [edoxudine],-0.301
7,C=C1CC[C@H](O)C/C1=C/C=C1\CCC[C@]2(C)[C@@H]([C@H](C)CCCC(C)C)CC[C@@H]12 [cholecalciferol],0.665
8,CC[C@@H]1OC(OC(c2c[nH]cn2)C(NC(=O)c2nc(C(CC(N)=O)NCC(N)C(N)=O)nc(N)c2C)C(=O)NC(C)C(O)C(C)C(=O)NC(C(=O)NCCc2nc(-c3nc(C(=O)NCCCCN=C(N)N)cs3)cs2)C(C)O)[C@@H](O[C@H]2O[C@H](CO)[C@@H](O)[C@H](OC(N)=O)[C@@H]2O)[C@@H](C)[C@@H]1C (stereo partly specified) [bleomycin (bleomycin b2 shown)],0.722
9,CN(C)c1ccc(C(=C2C=CC(=[N+](C)C)C=C2)c2ccc(N(C)C)cc2)cc1 [gentian violet],-0.651
10,CC(=O)S[C@@H]1CC2=CC(=O)CC[C@]2(C)[C@H]2CC[C@@]3(C)[C@@H](CC[C@@]34CCC(=O)O4)[C@H]12 [spironolactone],-1.78
11,O=C(OCC(O)CO)c1ccccc1Nc1ccnc2cc(Cl)ccc12 (stereo unspecified) [glafenine],0.0413
12,CN1CCC(=C2c3ccccc3CCc3sccc32)CC1 [pizotyline malate],-0.449
13,OC(Cn1cncn1)(Cn1cncn1)c1ccc(F)cc1F [fluconazole],-0.981
14,CN1CCN(CC/C=C2/c3ccccc3Sc3ccc(S(=O)(=O)N(C)C)cc32)CC1 [thiothixene],-0.178
15,O=C(c1ccc(OCCN2CCCCC2)cc1)c1c(-c2ccc(O)cc2)sc2cc(O)ccc12 [raloxifene hydrochloride],0.821
16,CN1CCN(CC(=O)N2c3ccccc3C(=O)Nc3cccnc32)CC1 [Pirenzepine dihydrochloride],0.194
17,C=CC(N)CCC(=O)O (racemic) [(±)-gamma-Vinyl GABA],-0.338
18,CC(C)(C)NCC(O)COc1cccc2c1CCC(=O)N2 (stereo unspecified) [carteolol hydrochloride],-0.395
19,FCOC(C(F)(F)F)C(F)(F)F [sevoflurane],-0.00408
20,CCN(CC)CCCC(C)Nc1ccnc2cc(Cl)ccc12 (stereo unspecified) [Chloroquine phosphate],0.417
21,CS(=O)(=O)c1ccc([C@@H](O)[C@@H](CF)NC(=O)C(Cl)Cl)cc1 [florfenicol],-0.261
22,CC(C)NCC(O)COc1cccc2ccccc12 (racemic) [(±)-Propranolol hydrochloride],-0.75
23,Oc1ccc(C2CNCCc3c2cc(O)c(O)c3Cl)cc1 (stereo unspecified) [fenoldipam mesylate],-0.286
24,N[C@@H](CC(=O)O)C(=O)O [L-Aspartic acid],0.189

row,SMILES,APOC3 transcript change (Z-score)
1,CC(=O)O[C@]1(C(C)=O)CCC2C3C=C(Cl)C4=CC(=O)CC[C@]4(C)C3CC[C@@]21C (stereo partly specified) [chlormadinone acetate],0.399
2,CCCCCN(C)CCC(O)(P(=O)(O)O)P(=O)(O)O [ibandronate sodium],-1.02
3,C[Se]CC[C@H](N)C(=O)O [selenomethionine],0.967
4,CCCCCCOC(=O)NC(=N)c1ccc(NCc2nc3cc(C(=O)N(CCC(=O)OCC)c4ccccn4)ccc3n2C)cc1 [dabigatran etexilate mesylate],0.673
5,CN(C)c1cnccn1 [ampyzine sulfate],-1.25
6,O=C1CC[C@@H](C(=O)N2CSC[C@H]2C(=O)O)N1 [pidotimod],-1.29
7,CN(C)CCC=C1c2ccccc2C=Cc2ccccc21 [cyclobenzaprine hydrochloride],-1.36
8,CC(=O)OCC(=O)NCCCOc1cccc(CN2CCCCC2)c1 [roxatidine acetate hydrochloride],0.317
9,O=C(CCCl)NCc1ccccc1 [beclamide],0.306
10,CCO/C(O)=C1/C(C)=NC(C)=C(C(=O)OC)C1c1cccc(Cl)c1Cl (stereo unspecified) [felodipine],-1.45
11,C[C@]12CCC(=O)C=C1CCC1C2C(=O)C[C@@]2(C)C1CC[C@]2(O)C(=O)CO (stereo partly specified) [cortisone],0.423
12,CCCCC/C=C/CCC(=O)N[C@H]1[C@H](Oc2c3cc4cc2Oc2ccc(cc2Cl)[C@@H](O[C@@H]2O[C@H](CO)[C@@H](O)[C@H](O)[C@H]2NC(C)=O)[C@@H]2NC(=O)[C@H](NC(=O)[C@@H]4NC(=O)[C@H]4NC(=O)C(Cc5ccc(c(Cl)c5)O3)NC(=O)[C@H](N)c3ccc(O)c(c3)Oc3cc(O)cc4c3)c3ccc(O)c(c3)-c3c(OC4O[C@H](CO)[C@@H](O)[C@H](O)[C@@H]4O)cc(O)cc3[C@@H](C(=O)O)NC2=O)O[C@H](CO)[C@@H](O)[C@@H]1O (stereo partly specified) [teicoplanin [a(2-1) shown]],0.0798
13,CC(C(=O)O)c1cccc(Oc2ccccc2)c1 (stereo unspecified) [fenoprofen],-0.143
14,CC(C)(C)NCC(O)COc1cccc2c1C[C@H](O)[C@H](O)C2 (stereo partly specified) [nadolol],0.942
15,CCN(CC)Cc1ccc(Nc2ccnc3cc(Cl)ccc23)cc1O [amodiaquine dihydrochloride],0.249
16,N=C(N)NC(=O)c1nc(Cl)c(N)nc1N [Amiloride hydrochloride],2.43
17,CCCc1ncc(C[n+]2ccccc2C)c(N)n1 [amprolium],0.00216
18,CO[C@H]1/C=C/O[C@@]2(C)Oc3c(C)c(O)c4c(O)c(c(/C=N/N5CCN(C)CC5)c(O)c4c3C2=O)NC(=O)/C(C)=C\C=C\[C@H](C)[C@H](O)[C@@H](C)[C@@H](O)[C@@H](C)[C@H](OC(C)=O)[C@@H]1C [rifampin],-0.537
19,CC(C)NCC(O)c1ccc(O)c(O)c1 (racemic) [(±)-Isoproterenol hydrochloride],-0.0182
20,CCCSc1ccc2[nH]c(NC(=O)OC)nc2c1 [albendazole],0.261
21,CCc1ccc(CCOc2ccc(CC3SC(=O)NC3=O)cc2)nc1 (stereo unspecified) [pioglitazone hydrochloride],0.458
22,Nc1ccn([C@H]2CC[C@@H](CO)O2)c(=O)n1 [zalcitabine],0.805
23,Cc1ccc(NC(=O)c2ccc(CN3CCN(C)CC3)cc2)cc1Nc1nccc(-c2cccnc2)n1 [imatinib],-0.588
24,Nc1ccc(O)c(C(=O)O)c1 [mesalamine],-0.372

# Not a retest: entries from further up.
row,SMILES,APOC3 transcript change (Z-score)
22,CC(C)NCC(O)COc1cccc2ccccc12 (racemic) [(±)-Propranolol hydrochloride],-0.75
23,Oc1ccc(C2CNCCc3c2cc(O)c(O)c3Cl)cc1 (stereo unspecified) [fenoldipam mesylate],-0.286
24,N[C@@H](CC(=O)O)C(=O)O [L-Aspartic acid],0.189
1,CC(=O)O[C@]1(C(C)=O)CCC2C3C=C(Cl)C4=CC(=O)CC[C@]4(C)C3CC[C@@]21C (stereo partly specified) [chlormadinone acetate],0.399
2,CCCCCN(C)CCC(O)(P(=O)(O)O)P(=O)(O)O [ibandronate sodium],-1.02
3,C[Se]CC[C@H](N)C(=O)O [selenomethionine],0.967
4,CCCCCCOC(=O)NC(=N)c1ccc(NCc2nc3cc(C(=O)N(CCC(=O)OCC)c4ccccn4)ccc3n2C)cc1 [dabigatran etexilate mesylate],0.673
5,CN(C)c1cnccn1 [ampyzine sulfate],-1.25
6,O=C1CC[C@@H](C(=O)N2CSC[C@H]2C(=O)O)N1 [pidotimod],-1.29
7,CN(C)CCC=C1c2ccccc2C=Cc2ccccc21 [cyclobenzaprine hydrochloride],-1.36
8,CC(=O)OCC(=O)NCCCOc1cccc(CN2CCCCC2)c1 [roxatidine acetate hydrochloride],0.317
9,O=C(CCCl)NCc1ccccc1 [beclamide],0.306
10,CCO/C(O)=C1/C(C)=NC(C)=C(C(=O)OC)C1c1cccc(Cl)c1Cl (stereo unspecified) [felodipine],-1.45
11,C[C@]12CCC(=O)C=C1CCC1C2C(=O)C[C@@]2(C)C1CC[C@]2(O)C(=O)CO (stereo partly specified) [cortisone],0.423

# (continued)

row,SMILES,APOC3 transcript change (Z-score)
1,CC(C)(Oc1ccc(CCNC(=O)c2ccc(Cl)cc2)cc1)C(=O)O [bezafibrate],0.0836
2,CC1/C=C/C=C/C=C/C=C/C=C/C=C/C=C/C(O[C@@H]2O[C@H](C)[C@H](O)[C@@H](O)[C@@H]2N)CC(O)C(C(=O)O)C(O)CC(=O)CC(O)CC(O)CC(O)CC(=O)CCCC(=O)CC(=O)OC1C(C)CC(C)C(O)CC(=O)c1ccc(N)cc1 (stereo partly specified) [candicidin],0.527
3,Cc1cccc(C)c1NC(=O)c1ccccc1C(=O)O [ftaxilide],0.0265
4,NS(=O)(=O)c1cc2c(cc1Cl)NC(CSCc1ccccc1)=NS2(=O)=O [benzthiazide],-0.539
5,NC(=O)c1ccccc1O [salicylamide],0.0633
6,c1ccc(CN(CC2=NCCN2)c2ccccc2)cc1 [antazoline phosphate],0.256
7,Oc1c(Br)cc(Br)c2cccnc12 [broxyquinoline],-0.0986
8,O=C(O)Cc1ccccc1Nc1c(Cl)cccc1Cl [Diclofenac sodium],0.65
9,CC(=O)[C@@]12O[C@](C)(c3ccccc3)O[C@@H]1C[C@H]1[C@@H]3CCC4=CC(=O)CC[C@]4(C)[C@H]3CC[C@@]12C [algestone acetophenide],0.188
10,NC(=O)c1cc[n+](CC2=C(C(=O)O)N3C(=O)C(NC(=O)C(c4ccccc4)S(=O)(=O)[O-])C3SC2)cc1 (stereo unspecified) [cefsulodin sodium],1.59
11,N#Cc1ccc(C(c2ccc(C#N)cc2)n2cncn2)cc1 [letrozole],-0.439
12,CC(CN1c2ccccc2Sc2ccccc21)N(C)C (stereo unspecified) [Promethazine hydrochloride],-0.51
13,CCN(CC)CCOc1ccc2c(c1)C(=O)c1cc(OCCN(CC)CC)ccc1-2 [tilorone],3.62
14,CC(C)[C@@H]1CC[C@@H](C)C[C@H]1O [(-)-menthol],-0.268
15,CC1=C(C(=O)O)N2C(=O)[C@@H](NC(=O)C(N)c3ccccc3)[C@H]2SC1 (stereo partly specified) [cephalexin],0.665
16,CCOc1ccc2nc(S(N)(=O)=O)sc2c1 [ethoxzolamide],0.0405
17,CCOC(=O)COc1ccc2c(=O)cc(-c3ccccc3)oc2c1 [efloxate],-1.07
18,COc1ccccc1OCC(O)CN1CCN(CC(=O)Nc2c(C)cccc2C)CC1 (stereo unspecified) [ranolazine],0.41
19,CC(=O)Oc1c(C)cccc1C(=O)O [cresopyrine],-0.299
20,N=c1ccn2c(n1)O[C@H]1[C@H](O)[C@@H](CO)O[C@H]12 [ancitabine hydrochloride],2.12
21,CO[C@@]1(NC(=O)C2SC(=C(C(N)=O)C(=O)O)S2)C(=O)N2C(C(=O)O)=C(CSc3nnnn3C)CS[C@@H]21 (stereo partly specified) [cefotetan],-0.0215
22,CC(=O)N[C@@H](CC(=O)O)C(=O)N[C@@H](CCC(=O)O)C(=O)O [spaglumic acid],0.317
23,CCC(=O)O[C@H](CC(=O)O)C[N+](C)(C)C [levocarnitine propionate hydrochloride],1

# Shown with bars between the fields: part of the list above
row | SMILES | APOC3 transcript change (Z-score)
4 | NS(=O)(=O)c1cc2c(cc1Cl)NC(CSCc1ccccc1)=NS2(=O)=O [benzthiazide] | -0.539
14 | CC(C)[C@@H]1CC[C@@H](C)C[C@H]1O [(-)-menthol] | -0.268
